Reference: patent US20080096807A1 (priority 2006, published 2008)
Square brackets hold non-standard residues; d marks the D form. NMeV = CN[C@H](C(=O)O)C(C)C; Nle = CCCC[C@H](N)C(=O)O

Assay: general procedure: Fmoc solid-phase peptide synthesis; Fmoc-Rink Linker-BHA resin; HBTU and DIC with HOBT (preferred); BOP/NMM for cyclisation
Details: whole synthesis, scale 0.25 mmol

Substance | isolated mass [mg] | isolated yield [%]
Ac-HADA[NMeV]FTENYTKLRKQ[Nle]AAKKYLNDLKKGGT-NH2 | 49 | 4.5
Ac-HADA[NMeV]FTENYTKLRKQ[Nle]AAKKYLNDLLKGGT-NH2 | 30.2 | 2.8
Ac-HSDA[NMeV]FTENYTKLRKR[Nle]AAKKYLNDLKKGGT-NH2 | 13.8 | 1.2
Ac-His-Ser-Asp-Ala-MeVal-Phe-Thr-Glu-Asn-Tyr-thr-Lys-Leu-Arg-Lys-Gln-Nle-Ala-Ala-Lys-Lys-Tyr-Leu-Asn-Asp-Leu-Leu-Lys-Gly-Gly-Thr-NH2 | 55 | 5.2
